The data set is described as follows: Autoluminescence of substrate in NanoGlo buffer. The settings on record: relative value, furimazine set to 1.

Turning to `O=c1c(Cc2ccc(OCCCCCCS(=O)(=O)[O-])c(Cl)c2)nc2c(Cc3ccccc3)[nH]c(-c3ccccc3)cn1-2.[Na+]` [JRW-0728, sodium 6-(4-((8-benzyl-3-oxo-6-phenyl-3,7-dihydroimidazo[1,2-a]pyrazin-2-yl)methyl)-2-chlorophenoxy)hexane-1-sulfonate], the “AutoLuminescence in NanoGlo Buffer” value worked out at 0.8.

With `O=c1c(Cc2ccc(OCCCCCCS(=O)(=O)OCC(Cl)(Cl)Cl)c(Cl)c2)nc2c(Cc3ccccc3)[nH]c(-c3ccccc3)cn1-2` [JRW-0665, 2,2,2-trichloroethyl 6-(4-((8-benzyl-3-oxo-6-phenyl-3,7-dihydroimidazo[1,2-a]pyrazin-2-yl)methyl)-2-chlorophenoxy)hexane-1-sulfonate], the “AutoLuminescence in NanoGlo Buffer” value is recorded as 0.4.

Take `O=c1c(Cc2cc(F)c(OCCCCCCS(=O)(=O)[O-])c(F)c2)nc2c(Cc3ccccc3)[nH]c(-c3ccccc3)cn1-2.[Na+]` [JRW-0771, sodium 6-(4-((8-benzyl-3-oxo-6-phenyl-3,7-dihydroimidazo[1,2-a]pyrazin-2-yl)methyl)-2,6-difluorophenoxy)hexane-1-sulfonate]: the “AutoLuminescence in NanoGlo Buffer” value was 1.2.

With `CC(C)(C)OC(=O)CCCCCOc1cccc(Cc2nc3c(Cc4ccccc4)[nH]c(-c4ccccc4)cn-3c2=O)c1` [JRW-0682, tert-butyl 6-(3-((8-benzyl-3-oxo-6-phenyl-3,7-dihydroimidazo[1,2-a]pyrazin-2-yl)methyl)phenoxy)hexanoate], the “AutoLuminescence in NanoGlo Buffer” value came to 0.3.

Regarding `O=c1c(Cc2ccc(OCCCCCCS(=O)(=O)[O-])c(F)c2)nc2c(Cc3ccccc3)[nH]c(-c3ccccc3)cn1-2.[Na+]` [JRW-0769, sodium 6-(4-((8-benzyl-3-oxo-6-phenyl-3,7-dihydroimidazo[1,2-a]pyrazin-2-yl)methyl)-2-fluorophenoxy)hexane-1-sulfonate], the “AutoLuminescence in NanoGlo Buffer” value was determined as 1.

Turning to `O=C(O)CCCCCOc1cccc(Cc2nc3c(Cc4ccccc4)[nH]c(-c4ccccc4)cn-3c2=O)c1` [JRW-0684, 6-(3-((8-benzyl-3-oxo-6-phenyl-3,7-dihydroimidazo[1,2-a]pyrazin-2-yl)methyl)phenoxy)hexanoic acid], the “AutoLuminescence in NanoGlo Buffer” value is given as 1.2.

In the case of `O=c1c(Cc2cccc(OCCCCCCBr)c2)nc2c(Cc3ccccc3)[nH]c(-c3ccccc3)cn1-2` [JRW-0692, 8-benzyl-2-(3-((6-bromohexyl)oxy)benzyl)-6-phenylimidazo[1,2-a]pyrazin-3(7H)-one], the “AutoLuminescence in NanoGlo Buffer” value was found to be 0.6.

On to `CC(=O)N[C@@H](CC(=O)O)C(=O)N[C@@H](CC(=O)O)C(=O)N[C@@H](CC(=O)O)C(=O)NCCCCCCOc1cccc(Cc2nc3c(Cc4ccccc4)[nH]c(-c4ccccc4)cn-3c2=O)c1` [JRW-0741, (S)-3-acetamido-4-(((S)-1-(((S)-1-((6-(3-((8-benzyl-3-oxo-6-phenyl-3,7-dihydroimidazo[1,2-a]pyrazin-2-yl)methyl)phenoxy)hexyl)amino)-3-carboxy-1-oxopropan-2-yl)amino)-3-carboxy-1-oxopropan-2-yl)amino)-4-oxobutanoic acid], for which the “AutoLuminescence in NanoGlo Buffer” value is given as 1.2.

`CC(C)(C)OC(=O)c1cccc(-c2cn3c(=O)c(Cc4ccco4)nc-3c(Cc3ccccc3)[nH]2)c1` [JRW-0755, tert-butyl 3-(8-benzyl-2-(furan-2-ylmethyl)-3-oxo-3,7-dihydroimidazo[1,2-a]pyrazin-6-yl)benzoate]: the “AutoLuminescence in NanoGlo Buffer” value turned out to be 0.6.

On to `CC(=O)N[C@@H](CC(=O)O)C(=O)N[C@@H](CC(=O)O)C(=O)N[C@@H](CC(=O)O)C(=O)NCCCCCCOc1ccc(Cc2nc3c(Cc4ccccc4)[nH]c(-c4ccccc4)cn-3c2=O)cc1F` [JRW-0806, (S)-3-acetamido-4-(((S)-1-(((S)-1-((6-(4-((8-benzyl-3-oxo-6-phenyl-3,7-dihydroimidazo[1,2-a]pyrazin-2-yl)methyl)-2-fluorophenoxy)hexyl)amino)-3-carboxy-1-oxopropan-2-yl)amino)-3-carboxy-1-oxopropan-2-yl)amino)-4-oxobutanoic acid], for which the “AutoLuminescence in NanoGlo Buffer” value is reported as 0.7.

With `O=c1c(Cc2cccc(OCCCCCCS(=O)(=O)[O-])c2)nc2c(Cc3ccccc3)[nH]c(-c3ccccc3)cn1-2.[Na+]` [JRW-0703, sodium 6-(3-((8-benzyl-3-oxo-6-phenyl-3,7-dihydroimidazo[1,2-a]pyrazin-2-yl)methyl)phenoxy)hexane-1-sulfonate], the “AutoLuminescence in NanoGlo Buffer” value is given as 0.8.

`CC(C)(C)OC(=O)CCCOc1cccc(Cc2nc3c(Cc4ccccc4)[nH]c(-c4ccccc4)cn-3c2=O)c1` [JRW-0714, tert-butyl 4-(3-((8-benzyl-3-oxo-6-phenyl-3,7-dihydroimidazo[1,2-a]pyrazin-2-yl)methyl)phenoxy)butanoate]: the “AutoLuminescence in NanoGlo Buffer” value is 0.5.

For the molecule `O=c1c(Cc2ccc(OCCCCCCCCS(=O)(=O)[O-])c(Cl)c2)nc2c(Cc3ccccc3)[nH]c(-c3ccccc3)cn1-2.[Na+]` [JRW-0761, sodium 8-(4-((8-benzyl-3-oxo-6-phenyl-3,7-dihydroimidazo[1,2-a]pyrazin-2-yl)methyl)-2-chlorophenoxy)octane-1-sulfonate], the “AutoLuminescence in NanoGlo Buffer” value came to 4.6.

In the case of `O=C(O)CCCCCCCOc1cccc(Cc2nc3c(Cc4ccccc4)[nH]c(-c4ccccc4)cn-3c2=O)c1` [JRW-0722, 8-(3-((8-benzyl-3-oxo-6-phenyl-3,7-dihydroimidazo[1,2-a]pyrazin-2-yl)methyl)phenoxy)octanoic acid], the “AutoLuminescence in NanoGlo Buffer” value was determined as 0.9.

For the molecule `O=c1c(Cc2cccc(OCCCS(=O)(=O)[O-])c2)nc2c(Cc3ccccc3)[nH]c(-c3ccccc3)cn1-2.[Na+]` [JRW-0713, sodium 3-(3-((8-benzyl-3-oxo-6-phenyl-3,7-dihydroimidazo[1,2-a]pyrazin-2-yl)methyl)phenoxy)propane-1-sulfonate], the “AutoLuminescence in NanoGlo Buffer” value is reported as 1.3.

Consider `O=c1c(Cc2ccc(OCCCCCCS(=O)(=O)O)c(Cl)c2)nc2c(Cc3ccccc3)[nH]c(-c3cccc(O)c3)cn1-2` [JRW-0805, 6-(4-((8-benzyl-6-(3-hydroxyphenyl)-3-oxo-3,7-dihydroimidazo[1,2-a]pyrazin-2-yl)methyl)-2-chlorophenoxy)hexane-1-sulfonic acid], for which the “AutoLuminescence in NanoGlo Buffer” value stood at 2.

Regarding `O=c1c(Cc2ccco2)nc2c(Cc3ccccc3)[nH]c(-c3ccccc3)cn1-2` [Furimazine, reference compound], the “AutoLuminescence in NanoGlo Buffer” value is 1.

In the case of `O=c1c(Cc2ccc(Cl)c(OCCCCCCS(=O)(=O)[O-])c2)nc2c(Cc3ccccc3)[nH]c(-c3ccccc3)cn1-2.[Na+]` [JRW-0766, sodium 6-(5-((8-benzyl-3-oxo-6-phenyl-3,7-dihydroimidazo[1,2-a]pyrazin-2-yl)methyl)-2-chlorophenoxy)hexane-1-sulfonate], the “AutoLuminescence in NanoGlo Buffer” value amounted to 1.

Turning to `O=C(O)c1ccc(-c2cn3c(=O)c(Cc4ccco4)nc-3c(Cc3ccccc3)[nH]2)cc1` [JRW-0790, 4-(8-benzyl-2-(furan-2-ylmethyl)-3-oxo-3,7-dihydroimidazo[1,2-a]pyrazin-6-yl)benzoic acid], the “AutoLuminescence in NanoGlo Buffer” value was found to be 9.

On to `O=c1c(Cc2ccc(OCCCCCCCCCCS(=O)(=O)[O-])c(Cl)c2)nc2c(Cc3ccccc3)[nH]c(-c3ccccc3)cn1-2.[Na+]` [JRW-0765, sodium 10-(4-((8-benzyl-3-oxo-6-phenyl-3,7-dihydroimidazo[1,2-a]pyrazin-2-yl)methyl)-2-chlorophenoxy)decane-1-sulfonate], for which the “AutoLuminescence in NanoGlo Buffer” value came to 1.1.

Take `NCCCCCCOc1cccc(Cc2nc3c(Cc4ccccc4)[nH]c(-c4ccccc4)cn-3c2=O)c1` [TAK-0039, 2-(3-((6-aminohexyl)oxy)benzyl)-8-benzyl-6-phenylimidazo[1,2-a]pyrazin-3(7H)-one]: the “AutoLuminescence in NanoGlo Buffer” value was found to be 0.6.

Regarding `CC(C)(C)OC(=O)CCCCCOc1ccc(Cc2nc3c(Cc4ccccc4)[nH]c(-c4ccccc4)cn-3c2=O)cc1Cl` [JRW-0725, tert-butyl 6-(4-((8-benzyl-3-oxo-6-phenyl-3,7-dihydroimidazo[1,2-a]pyrazin-2-yl)methyl)-2-chlorophenoxy)hexanoate], the “AutoLuminescence in NanoGlo Buffer” value is listed as 0.4.

For `O=C(O)CCCOc1cccc(Cc2nc3c(Cc4ccccc4)[nH]c(-c4ccccc4)cn-3c2=O)c1` [JRW-0716, 4-(3-((8-benzyl-3-oxo-6-phenyl-3,7-dihydroimidazo[1,2-a]pyrazin-2-yl)methyl)phenoxy)butanoic acid], the “AutoLuminescence in NanoGlo Buffer” value was 2.1.

For the molecule `O=c1c(Cc2ccc(OCCCCCCBr)c(Cl)c2)nc2c(Cc3ccccc3)[nH]c(-c3ccccc3)cn1-2` [JRW-0720, 8-benzyl-2-(4-((6-bromohexyl)oxy)-3-chlorobenzyl)-6-phenylimidazo[1,2-a]pyrazin-3(7H)-one], the “AutoLuminescence in NanoGlo Buffer” value turned out to be 0.4.

With `NCCCCCCOc1ccc(Cc2nc3c(Cc4ccccc4)[nH]c(-c4ccccc4)cn-3c2=O)cc1F` [JRW-0801, 2-(4-((6-aminohexyl)oxy)-3-fluorobenzyl)-8-benzyl-6-phenylimidazo[1,2-a]pyrazin-3(7H)-one], the “AutoLuminescence in NanoGlo Buffer” value was 0.6.

In the case of `CC(C)(C)OC(=O)CCCCCCCOc1cccc(Cc2nc3c(Cc4ccccc4)[nH]c(-c4ccccc4)cn-3c2=O)c1` [JRW-0719, tert-butyl 8-(3-((8-benzyl-3-oxo-6-phenyl-3,7-dihydroimidazo[1,2-a]pyrazin-2-yl)methyl)phenoxy)octanoate], the “AutoLuminescence in NanoGlo Buffer” value stood at 0.4.

Source of the values: US11192894B2, “Cell impermeable coelenterazine analogues” (PROMEGA CORPORATION, priority 2016, dated 2021).
